# The supplement of paper PMC8728848
# The list shows a part of the results.
# Legend:
# Assay in all cases: glycan array binding signal (z-score within array); higher = stronger binding
# Settings in all cases: glycan notation: IUPAC condensed, linker removed
# [1] = target: Fuc(a1-2)Gal(b1-4)GlcNAc(b1-3)Gal(b1-4)GlcNAc(b1-2)Man(a1-3)[Fuc(a1-2)Gal(b1-4)GlcNAc(b1-3)Gal(b1-4)GlcNAc(b1-2)Man(a1-6)]Man(b1-4)GlcNAc(b1-4)GlcNAc
# Method in brief: (§1)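 Glycan array binding is given as a within-array Z-score, which can be read as non-binding when negative. The arrays, 3228 of them, came from the Consortium for Functional Glycomics database and were retained only where the protein sequence was available. Z-scores were averaged across arrays of the same protein sequence at different concentrations or buffers and across linkers.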
# [2] = target: Fuc(a1-2)Gal(b1-4)GlcNAc(b1-3)Gal(b1-4)GlcNAc(b1-3)Gal(b1-4)GlcNAc
# Method in brief: as §1
# [3] = target: Fuc(a1-2)Gal(b1-4)GlcNAc(b1-3)GalNAc
# Method in brief: as §1
# [4] = target: Fuc(a1-2)Gal(b1-4)GlcNAc(b1-3)[Fuc(a1-2)Gal(b1-4)GlcNAc(b1-6)]GalNAc
# Method in brief: as §1
# [5] = target: Fuc(a1-2)Gal(b1-4)GlcNAc(b1-3)[Fuc(a1-3)[Gal(b1-4)]GlcNAc(b1-6)]Gal(b1-4)Glc
# Method in brief: as §1
# [6] = target: Fuc(a1-2)Gal(b1-4)GlcNAc(b1-6)GalNAc
# Method in brief: as §1
# [7] = target: Fuc(a1-2)Gal(b1-4)GlcNAc6S
# Method in brief: as §1
# [8] = target: Fuc(a1-2)Gal(b1-4)[Fuc(a1-3)]GlcNAc
# Method in brief: as §1
# [9] = target: Fuc(a1-2)Gal(b1-4)[Fuc(a1-3)]GlcNAc(b1-2)Man(a1-3)[Fuc(a1-2)Gal(b1-4)[Fuc(a1-3)]GlcNAc(b1-2)Man(a1-6)]Man(b1-4)GlcNAc(b1-4)[Fuc(a1-6)]GlcNAc
# Method in brief: as §1
# [10] = target: Fuc(a1-2)Gal(b1-4)[Fuc(a1-3)]GlcNAc(b1-2)[Fuc(a1-2)Gal(b1-4)[Fuc(a1-3)]GlcNAc(b1-4)]Man(a1-3)[Fuc(a1-2)Gal(b1-4)[Fuc(a1-3)]GlcNAc(b1-2)Man(a1-6)]Man(b1-4)GlcNAc(b1-4)GlcNAc
# Method in brief: as §1
# [11] = target: Fuc(a1-2)Gal(b1-4)[Fuc(a1-3)]GlcNAc(b1-3)Gal(b1-4)[Fuc(a1-3)]GlcNAc
# Method in brief: as §1
# [12] = target: Fuc(a1-2)Gal(b1-4)[Fuc(a1-3)]GlcNAc(b1-3)Gal(b1-4)[Fuc(a1-3)]GlcNAc(b1-3)Gal(b1-4)[Fuc(a1-3)]GlcNAc
# Method in brief: as §1
# [13] = target: Fuc(a1-2)Gal(b1-4)[Fuc(a1-3)]GlcNAc(b1-3)GalNAc
# Method in brief: as §1
# [14] = target: Fuc(a1-2)Gal(b1-4)[Fuc(a1-3)]GlcNAc(b1-3)[Neu5Ac(a2-6)Gal(b1-4)GlcNAc(b1-6)]Gal(b1-4)Glc
# Method in brief: as §1
# [15] = target: Fuc(a1-2)Gal6S(b1-3)GlcNAc
# Method in brief: as §1
# [16] = target: Fuc(a1-2)Gal6S(b1-3)GlcNAc6S
# Method in brief: as §1
# Fuc(a1-2)Gal6S(b1-4)Glc = target: Fuc(a1-2)Gal6S(b1-4)Glc
# Method in brief: as §1
# [17] = target: Fuc(a1-2)Gal6S(b1-4)Glc6S
# Method in brief: as §1
# [18] = target: Fuc(a1-2)Gal6S(b1-4)GlcNAc
# Method in brief: as §1
# Fuc(a1-2)[Gal(a1-3)]Gal = target: Fuc(a1-2)[Gal(a1-3)]Gal
# Method in brief: as §1
# [19] = target: Fuc(a1-2)[Gal(a1-3)]Gal(b1-3)GalNAc
# Method in brief: as §1
# [20] = target: Fuc(a1-2)[Gal(a1-3)]Gal(b1-3)GalNAc(b1-3)Gal(a1-4)Gal(b1-4)Glc
# Method in brief: as §1
# [21] = target: Fuc(a1-2)[Gal(a1-3)]Gal(b1-3)GlcNAc
# Method in brief: as §1
# [22] = target: Fuc(a1-2)[Gal(a1-3)]Gal(b1-3)GlcNAc(b1-2)Man(a1-3)[Fuc(a1-2)[Gal(a1-3)]Gal(b1-3)GlcNAc(b1-2)Man(a1-6)]Man(b1-4)GlcNAc(b1-4)GlcNAc
# Method in brief: as §1
# [23] = target: Fuc(a1-2)[Gal(a1-3)]Gal(b1-3)GlcNAc(b1-2)Man(a1-3)[Fuc(a1-2)[Gal(a1-3)]Gal(b1-3)GlcNAc(b1-2)Man(a1-6)]Man(b1-4)GlcNAc(b1-4)[Fuc(a1-6)]GlcNAc
# Method in brief: as §1
# [24] = target: Fuc(a1-2)[Gal(a1-3)]Gal(b1-3)GlcNAc(b1-3)GalNAc
# Method in brief: as §1
# [25] = target: Fuc(a1-2)[Gal(a1-3)]Gal(b1-3)GlcNAc(b1-6)GalNAc
# Method in brief: as §1
# [26] = target: Fuc(a1-2)[Gal(a1-3)]Gal(b1-4)Glc
# Method in brief: as §1
# [27] = target: Fuc(a1-2)[Gal(a1-3)]Gal(b1-4)GlcNAc
# Method in brief: as §1
# [28] = target: Fuc(a1-2)[Gal(a1-3)]Gal(b1-4)GlcNAc(b1-2)Man
# Method in brief: as §1
binder,measurement,setting,value
"RbmA (Vibrio cholerae), A0A2H4NFB8 (protein) MSNFKGSIMNKRHYYLASCLALLFSTASYAEVDCELQPVIEANLSLNQNQLASNGGYISSQLGIRNESCETVKFKYWLSIKGPEGIYFPAKAVVGVDTAQQESDALTDGRMLNVTRGFWVPEYMADGKYTVSLQVVAENGEVFKANQEFVKGGDLNSLPELNGLTIDIKNQFGINSVESTGGFVPFTIDLNNGREGEAKVEFWMTAVGPDGLIIPVHSREKWMIIAGNTFSKVRGINFDKSYPAGEYTINAQVVDIVSGERVEQLMTVVKK",glycan array binding signal (z-score),[1],1.1
same,glycan array binding signal (z-score),[2],-0.524
same,glycan array binding signal (z-score),[3],0.523
same,glycan array binding signal (z-score),[4],0.169
same,glycan array binding signal (z-score),[5],-1.04
same,glycan array binding signal (z-score),[6],0.02
same,glycan array binding signal (z-score),[7],-0.371
same,glycan array binding signal (z-score),[8],-1.15
same,glycan array binding signal (z-score),[9],-0.252
same,glycan array binding signal (z-score),[10],1.06
same,glycan array binding signal (z-score),[11],-1.17
same,glycan array binding signal (z-score),[12],-0.125
same,glycan array binding signal (z-score),[13],1.05
same,glycan array binding signal (z-score),[14],2.62
same,glycan array binding signal (z-score),[15],-1.11
same,glycan array binding signal (z-score),[16],1.54
same,glycan array binding signal (z-score),Fuc(a1-2)Gal6S(b1-4)Glc,-0.179
same,glycan array binding signal (z-score),[17],1.18
same,glycan array binding signal (z-score),[18],-0.22
same,glycan array binding signal (z-score),Fuc(a1-2)[Gal(a1-3)]Gal,-0.705
same,glycan array binding signal (z-score),[19],-0.446
same,glycan array binding signal (z-score),[20],0.168
same,glycan array binding signal (z-score),[21],1.13
same,glycan array binding signal (z-score),[22],-1.34
same,glycan array binding signal (z-score),[23],-0.144
same,glycan array binding signal (z-score),[24],0.632
same,glycan array binding signal (z-score),[25],-0.084
same,glycan array binding signal (z-score),[26],0.471
same,glycan array binding signal (z-score),[27],-0.42
same,glycan array binding signal (z-score),[28],-0.762

# Quoted at random: 2 entries already listed.
binder,measurement,setting,value
"RbmA (Vibrio cholerae), A0A2H4NFB8 (protein) MSNFKGSIMNKRHYYLASCLALLFSTASYAEVDCELQPVIEANLSLNQNQLASNGGYISSQLGIRNESCETVKFKYWLSIKGPEGIYFPAKAVVGVDTAQQESDALTDGRMLNVTRGFWVPEYMADGKYTVSLQVVAENGEVFKANQEFVKGGDLNSLPELNGLTIDIKNQFGINSVESTGGFVPFTIDLNNGREGEAKVEFWMTAVGPDGLIIPVHSREKWMIIAGNTFSKVRGINFDKSYPAGEYTINAQVVDIVSGERVEQLMTVVKK",glycan array binding signal (z-score),[25],-0.084
same,glycan array binding signal (z-score),[11],-1.17
